The record followed here is paper PMC8899368.

Sequences of proteins named here, by UniProt entry; tags and fusion partners are left off.
UniProt O15409: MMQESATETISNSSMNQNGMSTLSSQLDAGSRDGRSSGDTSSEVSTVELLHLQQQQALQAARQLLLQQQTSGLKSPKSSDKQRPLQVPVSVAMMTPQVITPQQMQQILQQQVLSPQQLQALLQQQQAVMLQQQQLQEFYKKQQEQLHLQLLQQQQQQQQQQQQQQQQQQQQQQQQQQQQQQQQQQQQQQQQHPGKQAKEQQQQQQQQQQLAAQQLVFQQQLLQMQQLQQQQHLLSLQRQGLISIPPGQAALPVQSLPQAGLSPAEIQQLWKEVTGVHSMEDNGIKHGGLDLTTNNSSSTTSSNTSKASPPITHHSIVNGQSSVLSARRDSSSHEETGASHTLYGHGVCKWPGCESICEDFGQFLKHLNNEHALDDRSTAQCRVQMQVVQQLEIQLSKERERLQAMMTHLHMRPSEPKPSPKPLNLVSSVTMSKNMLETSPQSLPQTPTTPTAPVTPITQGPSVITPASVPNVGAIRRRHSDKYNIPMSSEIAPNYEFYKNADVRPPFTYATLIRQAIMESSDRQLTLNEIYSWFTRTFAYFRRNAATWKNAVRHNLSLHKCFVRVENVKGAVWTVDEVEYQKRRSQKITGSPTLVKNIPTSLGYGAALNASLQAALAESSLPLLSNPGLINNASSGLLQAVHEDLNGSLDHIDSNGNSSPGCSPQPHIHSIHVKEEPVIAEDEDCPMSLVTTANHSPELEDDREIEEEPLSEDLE
UniProt P29466: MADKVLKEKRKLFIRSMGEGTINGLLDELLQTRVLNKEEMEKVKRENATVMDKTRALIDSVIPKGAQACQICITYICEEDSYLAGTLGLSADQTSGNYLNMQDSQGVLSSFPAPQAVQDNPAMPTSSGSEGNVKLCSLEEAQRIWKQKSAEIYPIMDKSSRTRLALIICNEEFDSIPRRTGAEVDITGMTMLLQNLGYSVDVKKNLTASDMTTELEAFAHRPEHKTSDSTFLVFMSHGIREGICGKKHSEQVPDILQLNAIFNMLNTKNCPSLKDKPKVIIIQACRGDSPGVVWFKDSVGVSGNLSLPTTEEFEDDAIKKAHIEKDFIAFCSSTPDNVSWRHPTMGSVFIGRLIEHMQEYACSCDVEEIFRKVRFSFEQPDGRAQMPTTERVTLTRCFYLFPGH

This assay deals with FOXP2 (human (endogenous in HCT116 and SW480)) (UniProt O15409). Description: co-IP; endogenous proteins in RIPA lysates of HCT116 and SW480 cells; precipitated with anti-FOXP2 and anti-caspase-1 antibodies on Protein A-Agarose, overnight at 4°C; IgG as control; Western blot with the same antibodies.

Results are given in words; binding and its absence hold for the method and conditions named. In cells and extracts the contact can be indirect. Some entries that bind do so weakly or less than the wild type.

Take caspase-1 (from UniProt P29466 1-404): the binding entry is on record as “binds”.
